From patent publication US20050037961A1 (BAYLOR COLLEGE OF MEDICINE, published 2005)
These are yes or no findings as the source states them, for the method shown. In cells and extracts the contact can be indirect. Some entries that bind do so weakly or less than the wild type. Sequences can lack the tags named with a protein.

Amino acid sequences for entries named in this document (tags omitted). A change or cut given only in a name is not applied to a line headed by its entry.
UniProt Q61169: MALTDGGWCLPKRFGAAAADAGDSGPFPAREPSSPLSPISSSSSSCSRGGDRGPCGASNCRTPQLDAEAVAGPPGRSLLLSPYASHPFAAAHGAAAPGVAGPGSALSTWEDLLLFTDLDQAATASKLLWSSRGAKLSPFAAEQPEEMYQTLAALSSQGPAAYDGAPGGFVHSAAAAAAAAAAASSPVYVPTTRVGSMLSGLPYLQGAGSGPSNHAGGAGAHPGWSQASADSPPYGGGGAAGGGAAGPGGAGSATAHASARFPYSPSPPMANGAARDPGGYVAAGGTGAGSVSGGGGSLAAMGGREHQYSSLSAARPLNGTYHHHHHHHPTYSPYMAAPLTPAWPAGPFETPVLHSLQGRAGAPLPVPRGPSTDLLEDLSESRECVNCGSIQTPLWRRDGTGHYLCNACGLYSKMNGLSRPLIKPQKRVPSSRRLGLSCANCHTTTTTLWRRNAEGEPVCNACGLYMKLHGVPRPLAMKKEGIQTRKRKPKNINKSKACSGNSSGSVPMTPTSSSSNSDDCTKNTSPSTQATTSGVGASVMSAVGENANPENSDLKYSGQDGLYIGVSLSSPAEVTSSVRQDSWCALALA
UniProt Q08369: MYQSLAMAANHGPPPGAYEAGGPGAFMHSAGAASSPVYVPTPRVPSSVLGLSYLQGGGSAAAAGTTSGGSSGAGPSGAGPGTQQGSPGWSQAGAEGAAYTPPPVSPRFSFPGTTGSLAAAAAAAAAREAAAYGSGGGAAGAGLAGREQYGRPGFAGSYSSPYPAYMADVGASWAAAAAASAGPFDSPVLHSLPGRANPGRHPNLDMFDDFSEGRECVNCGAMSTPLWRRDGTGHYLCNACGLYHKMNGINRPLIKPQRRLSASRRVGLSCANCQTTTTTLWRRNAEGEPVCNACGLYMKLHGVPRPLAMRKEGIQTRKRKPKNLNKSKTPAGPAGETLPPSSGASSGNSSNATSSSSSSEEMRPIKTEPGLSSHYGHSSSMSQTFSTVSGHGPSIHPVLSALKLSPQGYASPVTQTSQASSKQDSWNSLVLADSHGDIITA

T1: GST-CRP2 (rat) (UniProt Q62908)
T1 sequence (looked up): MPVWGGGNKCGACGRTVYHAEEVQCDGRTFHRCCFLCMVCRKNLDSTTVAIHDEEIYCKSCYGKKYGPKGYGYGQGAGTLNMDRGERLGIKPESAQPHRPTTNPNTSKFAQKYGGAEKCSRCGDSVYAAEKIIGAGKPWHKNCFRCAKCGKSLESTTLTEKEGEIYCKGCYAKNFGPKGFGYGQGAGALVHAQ

T2: GST-SRF (human, UniProt P11831 1-508)
T2 construct: also called GST-SRF fusion protein; not shown: glutathione S-transferase encoded by vector pGEX-2T
T2 sequence (looked up): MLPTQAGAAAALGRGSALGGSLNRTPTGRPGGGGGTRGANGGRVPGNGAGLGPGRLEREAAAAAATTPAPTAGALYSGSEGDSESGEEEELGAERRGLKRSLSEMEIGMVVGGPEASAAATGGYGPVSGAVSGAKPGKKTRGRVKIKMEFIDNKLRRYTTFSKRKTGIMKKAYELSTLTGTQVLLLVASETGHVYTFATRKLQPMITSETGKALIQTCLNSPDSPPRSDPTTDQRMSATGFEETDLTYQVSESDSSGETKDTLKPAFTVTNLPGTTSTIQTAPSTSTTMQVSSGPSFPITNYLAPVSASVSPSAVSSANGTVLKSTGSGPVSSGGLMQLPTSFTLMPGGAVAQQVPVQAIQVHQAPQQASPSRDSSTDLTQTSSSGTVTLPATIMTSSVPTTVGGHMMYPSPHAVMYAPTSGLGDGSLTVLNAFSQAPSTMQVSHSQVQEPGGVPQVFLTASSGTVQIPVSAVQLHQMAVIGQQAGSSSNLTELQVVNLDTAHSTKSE


Columns and labels:
GST-CRP2 (rat) = biological target: T1, GST-CRP2 (rat); test: GST-CRP2 pull-down of 35S-labelled in vitro translated protein, autoradiography
GST-SRF = biological target: T2, GST-SRF; test: GST-SRF pull-down of 35S-labelled in vitro translated protein, autoradiography
[1] = biological target: endogenous GATA6 (αMHC-CRP2 mouse heart nuclear extract) (mouse) (UniProt Q61169); test: co-IP from nuclear extracts of αMHC-CRP2 transgenic mouse hearts, immunoblot

Molecule	binding (GST-CRP2 (rat))	further results
G4ZF1+ZF2 (from UniProt Q08369 188-304)	binds	–
Myc-tag full length mouse GATA4 (1-440) (from UniProt Q08369 1-440)	binds	–
V5-tag full length CRP2 (1-193) (protein, rat, UniProt Q62908 1-193, looked up, not shown: small tags and cut ends) MPVWGGGNKCGACGRTVYHAEEVQCDGRTFHRCCFLCMVCRKNLDSTTVAIHDEEIYCKSCYGKKYGPKGYGYGQGAGTLNMDRGERLGIKPESAQPHRPTTNPNTSKFAQKYGGAEKCSRCGDSVYAAEKIIGAGKPWHKNCFRCAKCGKSLESTTLTEKEGEIYCKGCYAKNFGPKGFGYGQGAGALVHAQ	–	binding (GST-SRF): binds
FLAG-tagged rat CRP2 (αMHC-CRP2 transgene) (other, UniProt Q62908 1-193, looked up, not shown: small tags and cut ends, Expressed in cardiomyocytes of transgenic mice and assayed in nuclear and cytoplasmic heart extracts; also called FLAG-CRP2; FLAG-tagged CRP2) MPVWGGGNKCGACGRTVYHAEEVQCDGRTFHRCCFLCMVCRKNLDSTTVAIHDEEIYCKSCYGKKYGPKGYGYGQGAGTLNMDRGERLGIKPESAQPHRPTTNPNTSKFAQKYGGAEKCSRCGDSVYAAEKIIGAGKPWHKNCFRCAKCGKSLESTTLTEKEGEIYCKGCYAKNFGPKGFGYGQGAGALVHAQ	–	binding [1]: binds
